Data taken from the supplement of paper PMC12067093, “Discovery and optimisation of a covalent ligand for TRIM25 and its application to targeted protein ubiquitination” (Chemical Science, 2025).
The list shows a part of the results.

Amino acid sequences for entries named in this document (tags omitted). A change or cut given only in a name is not applied to a line headed by its entry.
UniProt Q8IZ69: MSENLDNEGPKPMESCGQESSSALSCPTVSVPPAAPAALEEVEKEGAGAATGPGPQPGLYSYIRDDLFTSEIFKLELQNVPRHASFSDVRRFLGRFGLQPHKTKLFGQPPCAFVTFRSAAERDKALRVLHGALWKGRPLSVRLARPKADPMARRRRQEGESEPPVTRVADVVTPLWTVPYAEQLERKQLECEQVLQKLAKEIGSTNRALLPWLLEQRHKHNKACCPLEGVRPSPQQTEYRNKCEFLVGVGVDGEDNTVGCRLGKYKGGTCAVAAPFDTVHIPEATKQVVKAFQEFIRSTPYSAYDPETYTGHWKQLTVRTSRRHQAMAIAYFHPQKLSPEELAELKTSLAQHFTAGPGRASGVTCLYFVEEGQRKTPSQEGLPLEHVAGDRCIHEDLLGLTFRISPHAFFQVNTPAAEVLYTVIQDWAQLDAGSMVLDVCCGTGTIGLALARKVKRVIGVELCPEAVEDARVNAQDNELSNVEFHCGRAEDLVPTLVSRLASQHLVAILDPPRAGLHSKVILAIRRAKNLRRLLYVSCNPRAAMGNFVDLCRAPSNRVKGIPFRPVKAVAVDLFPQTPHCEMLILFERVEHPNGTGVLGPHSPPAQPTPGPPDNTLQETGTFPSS
UniProt O95801: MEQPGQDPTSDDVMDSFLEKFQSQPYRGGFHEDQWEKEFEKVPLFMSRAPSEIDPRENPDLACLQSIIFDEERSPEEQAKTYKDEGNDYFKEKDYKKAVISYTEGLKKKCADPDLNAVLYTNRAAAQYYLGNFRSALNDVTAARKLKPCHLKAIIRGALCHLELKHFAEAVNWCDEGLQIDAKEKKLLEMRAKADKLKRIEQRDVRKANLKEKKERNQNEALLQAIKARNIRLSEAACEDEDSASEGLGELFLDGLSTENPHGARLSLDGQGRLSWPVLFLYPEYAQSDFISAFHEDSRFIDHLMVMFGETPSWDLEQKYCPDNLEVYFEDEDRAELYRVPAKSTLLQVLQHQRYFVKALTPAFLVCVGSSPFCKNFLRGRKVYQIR
UniProt Q16762: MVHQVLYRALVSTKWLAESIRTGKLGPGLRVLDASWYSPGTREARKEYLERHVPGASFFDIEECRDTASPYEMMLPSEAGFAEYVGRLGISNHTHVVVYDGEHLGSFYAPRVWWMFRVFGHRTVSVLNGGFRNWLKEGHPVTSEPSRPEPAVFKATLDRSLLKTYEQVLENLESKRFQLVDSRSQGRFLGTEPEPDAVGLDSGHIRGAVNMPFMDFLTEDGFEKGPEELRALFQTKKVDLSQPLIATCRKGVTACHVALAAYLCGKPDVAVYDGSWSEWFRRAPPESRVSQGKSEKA
UniProt P10155: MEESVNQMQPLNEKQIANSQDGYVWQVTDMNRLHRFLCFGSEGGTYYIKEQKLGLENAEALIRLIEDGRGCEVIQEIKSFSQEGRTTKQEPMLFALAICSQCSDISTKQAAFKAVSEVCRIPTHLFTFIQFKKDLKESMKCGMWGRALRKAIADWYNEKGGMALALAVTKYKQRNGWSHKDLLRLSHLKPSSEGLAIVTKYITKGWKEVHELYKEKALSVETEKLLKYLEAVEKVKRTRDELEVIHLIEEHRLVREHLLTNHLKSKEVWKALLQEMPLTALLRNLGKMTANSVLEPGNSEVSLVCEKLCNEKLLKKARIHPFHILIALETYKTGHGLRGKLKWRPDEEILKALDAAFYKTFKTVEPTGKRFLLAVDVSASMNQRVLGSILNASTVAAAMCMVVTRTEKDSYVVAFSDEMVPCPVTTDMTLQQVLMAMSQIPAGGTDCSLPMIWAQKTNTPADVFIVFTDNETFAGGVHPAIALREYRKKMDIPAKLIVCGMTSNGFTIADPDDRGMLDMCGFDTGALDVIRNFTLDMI
UniProt Q6PKC3: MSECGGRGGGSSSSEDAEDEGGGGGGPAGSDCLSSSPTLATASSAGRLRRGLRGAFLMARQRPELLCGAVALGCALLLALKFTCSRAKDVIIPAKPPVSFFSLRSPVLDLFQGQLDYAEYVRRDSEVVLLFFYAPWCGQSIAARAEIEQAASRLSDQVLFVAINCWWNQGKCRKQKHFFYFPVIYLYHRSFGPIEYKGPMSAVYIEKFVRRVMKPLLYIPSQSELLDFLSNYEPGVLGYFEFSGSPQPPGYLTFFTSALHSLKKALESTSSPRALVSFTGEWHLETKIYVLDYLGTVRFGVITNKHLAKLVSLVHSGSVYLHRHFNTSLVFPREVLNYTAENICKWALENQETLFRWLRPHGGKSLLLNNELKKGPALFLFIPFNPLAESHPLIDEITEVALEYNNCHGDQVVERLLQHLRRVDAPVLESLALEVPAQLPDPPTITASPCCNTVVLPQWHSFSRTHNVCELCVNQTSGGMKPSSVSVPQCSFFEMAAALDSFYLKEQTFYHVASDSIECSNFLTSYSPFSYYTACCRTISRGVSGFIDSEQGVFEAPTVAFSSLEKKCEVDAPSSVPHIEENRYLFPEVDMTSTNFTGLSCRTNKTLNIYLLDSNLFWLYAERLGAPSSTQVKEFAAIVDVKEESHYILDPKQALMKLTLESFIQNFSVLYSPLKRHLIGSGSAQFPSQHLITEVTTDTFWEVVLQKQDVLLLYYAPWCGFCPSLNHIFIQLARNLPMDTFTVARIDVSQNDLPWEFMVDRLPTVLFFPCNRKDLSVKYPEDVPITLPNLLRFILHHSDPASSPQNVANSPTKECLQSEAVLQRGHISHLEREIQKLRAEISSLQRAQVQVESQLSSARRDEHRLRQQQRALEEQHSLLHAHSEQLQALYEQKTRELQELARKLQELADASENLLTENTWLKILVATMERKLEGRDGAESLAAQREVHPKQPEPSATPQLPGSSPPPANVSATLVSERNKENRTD
UniProt Q9NX07: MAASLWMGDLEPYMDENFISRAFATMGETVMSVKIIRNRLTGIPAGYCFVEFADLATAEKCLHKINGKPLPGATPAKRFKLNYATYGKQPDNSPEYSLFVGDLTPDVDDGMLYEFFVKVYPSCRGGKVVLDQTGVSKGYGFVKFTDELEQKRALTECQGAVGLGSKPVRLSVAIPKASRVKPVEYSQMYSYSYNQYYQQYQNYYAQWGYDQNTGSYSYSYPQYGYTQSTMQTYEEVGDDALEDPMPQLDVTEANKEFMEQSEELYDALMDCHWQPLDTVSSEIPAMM
UniProt Q99757: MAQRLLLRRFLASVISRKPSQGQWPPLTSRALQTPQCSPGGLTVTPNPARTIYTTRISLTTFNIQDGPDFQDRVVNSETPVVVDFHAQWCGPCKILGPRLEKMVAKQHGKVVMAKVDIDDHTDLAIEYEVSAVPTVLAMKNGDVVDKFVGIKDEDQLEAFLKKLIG
UniProt Q6PGP7, whole entry, looked up: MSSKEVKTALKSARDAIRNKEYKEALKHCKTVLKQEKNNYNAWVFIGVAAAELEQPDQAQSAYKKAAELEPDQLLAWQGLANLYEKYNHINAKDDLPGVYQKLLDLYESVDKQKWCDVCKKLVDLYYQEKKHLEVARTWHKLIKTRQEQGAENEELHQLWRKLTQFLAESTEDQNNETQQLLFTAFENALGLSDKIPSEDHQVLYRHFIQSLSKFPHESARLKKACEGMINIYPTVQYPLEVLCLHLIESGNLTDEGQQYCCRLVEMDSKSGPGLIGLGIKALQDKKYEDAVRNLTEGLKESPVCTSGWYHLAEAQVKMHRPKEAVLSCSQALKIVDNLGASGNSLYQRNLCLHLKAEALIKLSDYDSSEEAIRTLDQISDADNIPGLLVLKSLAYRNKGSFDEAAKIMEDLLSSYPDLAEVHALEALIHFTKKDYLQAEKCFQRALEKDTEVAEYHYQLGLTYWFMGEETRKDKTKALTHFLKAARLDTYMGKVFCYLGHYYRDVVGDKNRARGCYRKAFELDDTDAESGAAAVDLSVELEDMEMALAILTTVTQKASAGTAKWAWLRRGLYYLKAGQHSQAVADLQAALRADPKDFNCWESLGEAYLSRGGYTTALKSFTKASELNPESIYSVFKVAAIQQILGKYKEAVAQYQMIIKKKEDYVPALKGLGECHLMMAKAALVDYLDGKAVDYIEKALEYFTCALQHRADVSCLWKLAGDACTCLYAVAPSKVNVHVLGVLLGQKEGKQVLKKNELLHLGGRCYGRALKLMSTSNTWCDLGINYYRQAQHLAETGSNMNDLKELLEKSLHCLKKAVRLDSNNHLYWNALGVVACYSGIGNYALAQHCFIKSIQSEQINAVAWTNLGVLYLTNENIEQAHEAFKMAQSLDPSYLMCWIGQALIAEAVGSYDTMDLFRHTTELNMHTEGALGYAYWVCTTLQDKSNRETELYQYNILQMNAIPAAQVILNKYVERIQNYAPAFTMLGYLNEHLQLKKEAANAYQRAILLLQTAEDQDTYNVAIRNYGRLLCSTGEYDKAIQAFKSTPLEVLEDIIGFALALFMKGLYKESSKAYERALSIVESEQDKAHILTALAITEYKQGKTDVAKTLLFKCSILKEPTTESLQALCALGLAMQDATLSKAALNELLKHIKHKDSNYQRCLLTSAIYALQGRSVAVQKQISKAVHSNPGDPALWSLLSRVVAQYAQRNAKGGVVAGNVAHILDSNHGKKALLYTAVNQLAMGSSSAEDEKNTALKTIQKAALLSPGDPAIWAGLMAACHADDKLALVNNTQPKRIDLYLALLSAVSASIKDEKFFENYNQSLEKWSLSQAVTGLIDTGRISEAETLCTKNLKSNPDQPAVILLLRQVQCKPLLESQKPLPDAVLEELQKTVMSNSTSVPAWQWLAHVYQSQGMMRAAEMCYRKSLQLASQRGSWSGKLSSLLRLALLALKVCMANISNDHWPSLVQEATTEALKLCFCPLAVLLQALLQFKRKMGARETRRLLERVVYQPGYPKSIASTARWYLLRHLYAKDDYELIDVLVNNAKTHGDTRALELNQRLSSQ
UniProt Q2NL82: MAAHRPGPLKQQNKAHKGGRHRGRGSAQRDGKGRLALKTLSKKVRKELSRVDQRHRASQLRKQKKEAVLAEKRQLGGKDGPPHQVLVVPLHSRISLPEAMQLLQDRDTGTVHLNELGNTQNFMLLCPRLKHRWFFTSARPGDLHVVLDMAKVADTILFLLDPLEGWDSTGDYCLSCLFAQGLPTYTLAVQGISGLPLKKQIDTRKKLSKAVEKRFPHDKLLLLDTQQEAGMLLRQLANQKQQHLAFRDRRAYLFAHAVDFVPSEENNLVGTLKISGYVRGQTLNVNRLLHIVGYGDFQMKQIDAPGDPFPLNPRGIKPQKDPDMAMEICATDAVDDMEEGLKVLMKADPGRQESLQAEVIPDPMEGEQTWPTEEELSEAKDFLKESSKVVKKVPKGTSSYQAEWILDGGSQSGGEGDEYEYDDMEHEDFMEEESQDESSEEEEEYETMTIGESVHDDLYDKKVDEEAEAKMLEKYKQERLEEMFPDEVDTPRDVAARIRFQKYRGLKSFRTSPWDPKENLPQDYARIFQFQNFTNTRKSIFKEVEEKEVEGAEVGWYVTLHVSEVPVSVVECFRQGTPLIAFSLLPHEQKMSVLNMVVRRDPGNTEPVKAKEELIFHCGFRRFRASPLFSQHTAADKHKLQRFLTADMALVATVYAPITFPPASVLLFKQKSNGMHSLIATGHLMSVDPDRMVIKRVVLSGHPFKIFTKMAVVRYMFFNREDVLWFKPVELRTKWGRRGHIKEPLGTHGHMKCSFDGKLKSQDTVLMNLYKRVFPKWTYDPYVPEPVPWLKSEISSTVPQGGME
UniProt Q9BSJ2, whole entry, looked up: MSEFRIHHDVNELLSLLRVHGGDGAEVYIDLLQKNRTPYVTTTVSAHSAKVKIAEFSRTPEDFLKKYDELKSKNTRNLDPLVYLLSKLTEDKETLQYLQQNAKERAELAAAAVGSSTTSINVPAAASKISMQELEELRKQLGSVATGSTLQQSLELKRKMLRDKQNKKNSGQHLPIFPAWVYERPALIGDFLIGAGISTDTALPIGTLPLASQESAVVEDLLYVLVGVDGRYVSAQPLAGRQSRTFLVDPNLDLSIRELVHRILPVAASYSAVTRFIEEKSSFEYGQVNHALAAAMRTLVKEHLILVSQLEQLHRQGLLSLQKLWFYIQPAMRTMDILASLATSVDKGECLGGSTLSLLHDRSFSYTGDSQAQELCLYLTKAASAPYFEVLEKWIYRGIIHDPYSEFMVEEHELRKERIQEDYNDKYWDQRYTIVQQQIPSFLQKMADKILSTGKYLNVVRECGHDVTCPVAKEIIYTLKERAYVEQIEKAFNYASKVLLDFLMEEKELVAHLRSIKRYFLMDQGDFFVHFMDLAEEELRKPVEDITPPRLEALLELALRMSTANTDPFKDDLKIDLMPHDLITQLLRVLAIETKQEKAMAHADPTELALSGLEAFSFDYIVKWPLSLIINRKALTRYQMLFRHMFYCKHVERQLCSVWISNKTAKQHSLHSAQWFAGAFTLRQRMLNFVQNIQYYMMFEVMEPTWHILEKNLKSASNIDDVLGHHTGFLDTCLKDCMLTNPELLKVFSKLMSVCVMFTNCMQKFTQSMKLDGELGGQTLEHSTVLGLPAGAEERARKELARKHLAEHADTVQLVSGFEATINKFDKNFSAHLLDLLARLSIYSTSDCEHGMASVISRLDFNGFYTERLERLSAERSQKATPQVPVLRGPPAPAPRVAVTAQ

These targets were tested with CC1Cc2ccccc2N1C(=O)C1CCCN(C1)C(=O)CCl (mixture of isomers) [TRIM25 ligand 11 (diastereomer mixture)] (assay: probe-labelled cysteine peptide fold change vs DMSO (competition) (log2 fold change); higher = less target engagement (more negative = stronger competition)). Details: 10 µM; THP-1; incubation time: 4 h.
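Further: competitive chemoproteomic profiling in live THP-1 cells with an iodoacetamide desthiobiotin (IA-DTB) probe, comparing probe-labelled peptide intensities in compound-treated cells against DMSO-treated controls.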

Row | Target | probe-labelled cysteine peptide fold change
1 | TTC1_Q99614_149_ALEMCPSCFQK (UniProt Q99614) | 0.0538
2 | TTI1_O43156_185+187_CLQVLLLQCDCQDHPR (UniProt O43156) | -0.0713
3 | TTLL12_Q14166_563+572_AFTELFQVACAKPPPLGLCDYPSSR (UniProt Q14166) | 0.119
4 | TRMT2A_Q8IZ69_580_AVAVDLFPQTPHCEMLILFER (UniProt Q8IZ69) | 0.0397
5 | TTC4_O95801_110_CADPDLNAVLYTNR (UniProt O95801) | -0.0693
6 | TTC5_Q8N0Z6_29_DCYFETHSVEDAGR (UniProt Q8N0Z6) | -0.00474
7 | TST_Q16762_64_HVPGASFFDIEECR (UniProt Q16762) | 0.135
8 | TTC14_Q96N46_371_AIEDFELALENCPTHR (UniProt Q96N46) | 0.456
9 | TROVE2_P10155_99_QEPMLFALAICSQCSDISTK (UniProt P10155) | -0.132
10 | TRRAP_Q9Y4A5_420_NIDDESLPSSIQTMSCK (UniProt Q9Y4A5) | 0.299
11 | TSEN34_Q9BSV6_262_FHAHYIAQCWAPEDTIPLQDLVAAGR (UniProt Q9BSV6) | -0.109
12 | TXNDC11_Q6PKC3_815_ECLQSEAVLQR (UniProt Q6PKC3) | -0.111
13 | TTC27_Q6P3X3_374_NNPVHTLTEVELLAFTSCLLSQPK (UniProt Q6P3X3) | 0.253
14 | TTC27_Q6P3X3_503_ETPSLYCLLGDVLGDHSCYDK (UniProt Q6P3X3) | -0.0522
15 | TROVE2_P10155_520_GMLDMCGFDTGALDVIR (UniProt P10155) | -0.0507
16 | TTF2_Q9UNY4_785_CSPFDEFNLWR (UniProt Q9UNY4) | 0.0364
17 | TRMT2A_Q8IZ69_392_CIHEDLLGLTFR (UniProt Q8IZ69) | 0.0348
18 | TSC2_P49815_519_LATQLLVDLAEGCHTHHFNSLLDIIEK (UniProt P49815) | 0.243
19 | TTK_P33981_229_NNSCDSR (UniProt P33981) | 0.015

Row | Target | probe-labelled cysteine peptide fold change
20 | TRNAU1AP_Q9NX07_157_ALTECQGAVGLGSKPVR (UniProt Q9NX07) | -0.0678
21 | TXN2_Q99757_90+93_VVNSETPVVVDFHAQWCGPCK (UniProt Q99757) | -0.411
22 | TTC13_Q8NBP0_505_DVLHQNFESYKPEVQELICVADR (UniProt Q8NBP0) | -0.0634
23 | TRRAP_Q9Y4A5_1868_LMTFAWPCLLSK (UniProt Q9Y4A5) | -0.115
24 | TRRAP_Q9Y4A5_1879_ACVDPACK (UniProt Q9Y4A5) | 0.175
25 | TTC17_Q96AE7_340_HAVLCQQK (UniProt Q96AE7) | 0.279
26 | TTC17_Q96AE7_412_EAQLGNHQICR (UniProt Q96AE7) | 0.153
27 | TXNDC17_Q9BRA2_69_HISEGCVFIYCQVGEK (UniProt Q9BRA2) | 0.072
28 | TTC27_Q6P3X3_514_KETPSLYCLLGDVLGDHSCYDK (UniProt Q6P3X3) | -0.0969
29 | TTF2_Q9UNY4_1118_FVCEGTVEEK (UniProt Q9UNY4) | -0.132
30 | TTC37_Q6PGP7_1280_AALLSPGDPAIWAGLMAACHADDK (UniProt Q6PGP7) | -0.152
31 | TTI2_Q6NXR4_36_ILHCLARPEAR (UniProt Q6NXR4) | -0.0996
32 | TSR1_Q2NL82_753_CSFDGK (UniProt Q2NL82) | -0.16
33 | TSPAN2_O60636_164_ESSEQVQPTCPK (UniProt O60636) | 0.0227
34 | TROVE2_P10155_71_GCEVIQEIK (UniProt P10155) | 0.0303
35 | TRRAP_Q9Y4A5_1376_IAALNALAACNYLPQSR (UniProt Q9Y4A5) | -0.157
36 | TUBGCP2_Q9BSJ2_648_HMFYCK (UniProt Q9BSJ2) | 0.106
37 | TRRAP_Q9Y4A5_2513_STPIGTSCQGAMLPSITNVINLADSHDR (UniProt Q9Y4A5) | 0.105
38 | TTC38_Q5R3I4_429_DVFNQLLIHAALNCTSSVHK (UniProt Q5R3I4) | -0.0128

Same assay, conditions: 50 µM; THP-1; incubation time: 4 h

Row | Target | probe-labelled cysteine peptide fold change
39 | TTC1_Q99614_149_ALEMCPSCFQK (UniProt Q99614) | 0.202
40 | TTI1_O43156_185+187_CLQVLLLQCDCQDHPR (UniProt O43156) | -0.00677
41 | TTLL12_Q14166_563+572_AFTELFQVACAKPPPLGLCDYPSSR (UniProt Q14166) | 0.161
42 | TRMT2A_Q8IZ69_580_AVAVDLFPQTPHCEMLILFER (UniProt Q8IZ69) | -0.0186
43 | TTC4_O95801_110_CADPDLNAVLYTNR (UniProt O95801) | -0.162
44 | TTC5_Q8N0Z6_29_DCYFETHSVEDAGR (UniProt Q8N0Z6) | 0.0453
45 | TST_Q16762_64_HVPGASFFDIEECR (UniProt Q16762) | 0.353
46 | TTC14_Q96N46_371_AIEDFELALENCPTHR (UniProt Q96N46) | 0.356
47 | TROVE2_P10155_99_QEPMLFALAICSQCSDISTK (UniProt P10155) | 0.278
48 | TRRAP_Q9Y4A5_420_NIDDESLPSSIQTMSCK (UniProt Q9Y4A5) | 0.0468
49 | TSEN34_Q9BSV6_262_FHAHYIAQCWAPEDTIPLQDLVAAGR (UniProt Q9BSV6) | 0.055
50 | TXNDC11_Q6PKC3_815_ECLQSEAVLQR (UniProt Q6PKC3) | -0.159
51 | TTC27_Q6P3X3_374_NNPVHTLTEVELLAFTSCLLSQPK (UniProt Q6P3X3) | 0.421
52 | TTC27_Q6P3X3_503_ETPSLYCLLGDVLGDHSCYDK (UniProt Q6P3X3) | -0.0196
53 | TROVE2_P10155_520_GMLDMCGFDTGALDVIR (UniProt P10155) | -0.174
54 | TTF2_Q9UNY4_785_CSPFDEFNLWR (UniProt Q9UNY4) | 0.132
55 | TRMT2A_Q8IZ69_392_CIHEDLLGLTFR (UniProt Q8IZ69) | 0.0272
56 | TSC2_P49815_519_LATQLLVDLAEGCHTHHFNSLLDIIEK (UniProt P49815) | 0.0595
57 | TTK_P33981_229_NNSCDSR (UniProt P33981) | 0.292

Row | Target | probe-labelled cysteine peptide fold change
58 | TRNAU1AP_Q9NX07_157_ALTECQGAVGLGSKPVR (UniProt Q9NX07) | -0.0966
59 | TXN2_Q99757_90+93_VVNSETPVVVDFHAQWCGPCK (UniProt Q99757) | -1.31
60 | TTC13_Q8NBP0_505_DVLHQNFESYKPEVQELICVADR (UniProt Q8NBP0) | -0.0296
61 | TRRAP_Q9Y4A5_1868_LMTFAWPCLLSK (UniProt Q9Y4A5) | -0.136
62 | TRRAP_Q9Y4A5_1879_ACVDPACK (UniProt Q9Y4A5) | 0.172
63 | TTC17_Q96AE7_340_HAVLCQQK (UniProt Q96AE7) | 0.445
64 | TTC17_Q96AE7_412_EAQLGNHQICR (UniProt Q96AE7) | 0.254
65 | TXNDC17_Q9BRA2_69_HISEGCVFIYCQVGEK (UniProt Q9BRA2) | -0.148
66 | TTC27_Q6P3X3_514_KETPSLYCLLGDVLGDHSCYDK (UniProt Q6P3X3) | 0.0408
67 | TTF2_Q9UNY4_1118_FVCEGTVEEK (UniProt Q9UNY4) | -0.00382
68 | TTC37_Q6PGP7_1280_AALLSPGDPAIWAGLMAACHADDK (UniProt Q6PGP7) | 0.0021
69 | TTI2_Q6NXR4_36_ILHCLARPEAR (UniProt Q6NXR4) | -0.12
70 | TSR1_Q2NL82_753_CSFDGK (UniProt Q2NL82) | -0.178
71 | TSPAN2_O60636_164_ESSEQVQPTCPK (UniProt O60636) | 0.197
72 | TROVE2_P10155_71_GCEVIQEIK (UniProt P10155) | -0.0657
73 | TRRAP_Q9Y4A5_1376_IAALNALAACNYLPQSR (UniProt Q9Y4A5) | -0.0725
74 | TUBGCP2_Q9BSJ2_648_HMFYCK (UniProt Q9BSJ2) | 0.238
75 | TRRAP_Q9Y4A5_2513_STPIGTSCQGAMLPSITNVINLADSHDR (UniProt Q9Y4A5) | -0.0541
76 | TTC38_Q5R3I4_429_DVFNQLLIHAALNCTSSVHK (UniProt Q5R3I4) | -0.087
